Record: PubChem BioAssay AID1224829 (NIAID, 2016)
The deposit covers about 3,800 reagents; below is a random part of them. 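Calls cover raised and lowered translocation; gene median uses one vendor's three siRNAs; qiagen siRNAs acted more weakly than ambion siRNAs.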 Reagents against one gene are numbered here. Not all columns of the deposit are shown.

- Screen: 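Secondary check of hits that alter LPS-induced p65 translocation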 (follow-up of hits)
- System: mouse RAW264.7 G9 macrophage reporter cells
- Reagents: single siRNA against mouse genes, 100 nM
- Timing: 2 days of siRNA knock-down, then 40 min of LPS before fixing
- Conditions: LPS (Salmonella minnesota R595) at 10 ng/ml
- Measured: 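High-content images after 40 min LPS exposure; GFP-p65 nucleus to surrounding ring signal ratio, normalised to plate median and non-targeting control wells, expressed as z-score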
- Reading the numbers: p65 translocation z-score: higher = more nuclear NF-kappaB p65 after LPS
- Hit rule: 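Active means the replicate-mean z-score lies beyond plus or minus 2, in either direction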
- Calls: active = changed p65 translocation (either direction); inactive = no clear change

Gnpnat1 #1, siRNA vendor or control pool ambion single siRNA | p65 translocation z-score, replicate mean = -1.74; outcome = inactive
Gnpnat1 #2, siRNA vendor or control pool ambion single siRNA | p65 translocation z-score, replicate mean = -2.93; outcome = active
Gnpnat1 #3, siRNA vendor or control pool ambion single siRNA | p65 translocation z-score, replicate mean = -4.51; outcome = active
Gnpnat1 #4, siRNA vendor or control pool qiagen single siRNA | p65 translocation z-score, replicate mean = -1.32; outcome = inactive
Gnpnat1 #5, siRNA vendor or control pool qiagen single siRNA | p65 translocation z-score, replicate mean = -0.772; outcome = inactive
Gnpnat1 #6, siRNA vendor or control pool qiagen single siRNA | p65 translocation z-score, replicate mean = -3.98; outcome = active

No new results follow: entries from further up.
Gnpnat1 #4, siRNA vendor or control pool qiagen single siRNA | p65 translocation z-score, replicate mean = -1.32; outcome = inactive
Gnpnat1 #5, siRNA vendor or control pool qiagen single siRNA | p65 translocation z-score, replicate mean = -0.772; outcome = inactive

Continued.
Dsg1a #1, siRNA vendor or control pool ambion single siRNA | p65 translocation z-score, replicate mean = 0.88; outcome = inactive
Dsg1a #2, siRNA vendor or control pool ambion single siRNA | p65 translocation z-score, replicate mean = -0.491; outcome = inactive
Dsg1a #3, siRNA vendor or control pool ambion single siRNA | p65 translocation z-score, replicate mean = -0.713; outcome = inactive
Dsg1a #4, siRNA vendor or control pool qiagen single siRNA | p65 translocation z-score, replicate mean = 2.72; outcome = active
Dsg1a #5, siRNA vendor or control pool qiagen single siRNA | p65 translocation z-score, replicate mean = 0.325; outcome = inactive
Dsg1a #6, siRNA vendor or control pool qiagen single siRNA | p65 translocation z-score, replicate mean = 0.834; outcome = inactive
